Laboratory results as given in US20120015399A1, “FLUORESCENT SOLVATOCHROMIC PIGMENT” (National University Corporation Hokkaido University, priority 2009, published 2012).

Test system: human colon cancer cell T84
Test: Staining of cultured cells, confocal laser fluorescence microscopy
Format: cell-based
Procedure: In the present Example, Compound 7 was introduced into cultured human colon cancer cell T84 and its image was observed using a fluorescence microscope.
Human colon cancer cell T84 culture (cell stock-microbial stock-gene bank (ATCC) number CCL-248, supplied by Summit Pharmaceuticals International Corporation) in a sub-confluent state that had been cultured (37° C., 5% CO2) for two to four days in a glass bottom dish (35 mm, Matsunami Glass Ind., Ltd.) was washed with phosphoric acid buffered physiological saline solution. One hundred microliters of a DMSO solution of 2×10^−5 M of Compound 7 was added dropwise near the cells, and a reaction was allowed to occur for five minutes at room temperature. The cells were washed again using phosphoric acid buffered physiological saline solution and were immediately exposed to an argon laser (488 nm) to reach an excited state in the phosphoric acid buffered physiological saline solution. The response was observed using a confocal laser microscope (LSM510META manufactured by Carl Zeiss).
In the present Comparative Example, the compound shown below described in Reference 3 (Japanese Patent Application Public Disclosure No. 2008-291210) was used in place of Compound 7, and the fluorescence microscope images of the cultured human colon cancer cell T84 were examined in the manner described in Example 5.

CCCCCCN(CCCCCC)c1ccc(-c2ccc(-c3cc[n+](C)cc3)s2)cc1.F[B-](F)(F)F [Compound 7, 4-[5-(4-dihexylamino)phenyl]thiophene-2-yl-1-methylpyridinium tetrafluoroborate]
Time stained cells maintained the fluorescence (standing at room temperature): at least several hours

CN(C)c1ccc(-c2ccc(-c3ccc(S(=O)(=O)OCC(C)(C)C)cc3)s2)cc1 [reference compound]
Excitation needed to obtain fluorescence image (Comparative Example 1): only when excited by using a blue diode laser (405 nm)
